The target of experiment [1] is T1, APEX2-ATOX1 fusion construct (3x Flag-APEX2-3x Myc-human ATOX1) (human) (UniProt O00244).
T1 sequence: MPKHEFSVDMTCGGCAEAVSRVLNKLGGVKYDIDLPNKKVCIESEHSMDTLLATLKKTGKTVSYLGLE
Kind of experiment: proximity labelling; APEX2-ATOX1 in C2C12 myoblasts, myocytes and myotubes; streptavidin bead eluates eluted with urea containing buffer without boiling, probed by immunoblot; cells without biotin phenol as negative controls. (In western blotting, separated proteins are transferred to a membrane and probed.)

Amino acid sequences for entries named in this document (tags omitted).
UniProt Q64430: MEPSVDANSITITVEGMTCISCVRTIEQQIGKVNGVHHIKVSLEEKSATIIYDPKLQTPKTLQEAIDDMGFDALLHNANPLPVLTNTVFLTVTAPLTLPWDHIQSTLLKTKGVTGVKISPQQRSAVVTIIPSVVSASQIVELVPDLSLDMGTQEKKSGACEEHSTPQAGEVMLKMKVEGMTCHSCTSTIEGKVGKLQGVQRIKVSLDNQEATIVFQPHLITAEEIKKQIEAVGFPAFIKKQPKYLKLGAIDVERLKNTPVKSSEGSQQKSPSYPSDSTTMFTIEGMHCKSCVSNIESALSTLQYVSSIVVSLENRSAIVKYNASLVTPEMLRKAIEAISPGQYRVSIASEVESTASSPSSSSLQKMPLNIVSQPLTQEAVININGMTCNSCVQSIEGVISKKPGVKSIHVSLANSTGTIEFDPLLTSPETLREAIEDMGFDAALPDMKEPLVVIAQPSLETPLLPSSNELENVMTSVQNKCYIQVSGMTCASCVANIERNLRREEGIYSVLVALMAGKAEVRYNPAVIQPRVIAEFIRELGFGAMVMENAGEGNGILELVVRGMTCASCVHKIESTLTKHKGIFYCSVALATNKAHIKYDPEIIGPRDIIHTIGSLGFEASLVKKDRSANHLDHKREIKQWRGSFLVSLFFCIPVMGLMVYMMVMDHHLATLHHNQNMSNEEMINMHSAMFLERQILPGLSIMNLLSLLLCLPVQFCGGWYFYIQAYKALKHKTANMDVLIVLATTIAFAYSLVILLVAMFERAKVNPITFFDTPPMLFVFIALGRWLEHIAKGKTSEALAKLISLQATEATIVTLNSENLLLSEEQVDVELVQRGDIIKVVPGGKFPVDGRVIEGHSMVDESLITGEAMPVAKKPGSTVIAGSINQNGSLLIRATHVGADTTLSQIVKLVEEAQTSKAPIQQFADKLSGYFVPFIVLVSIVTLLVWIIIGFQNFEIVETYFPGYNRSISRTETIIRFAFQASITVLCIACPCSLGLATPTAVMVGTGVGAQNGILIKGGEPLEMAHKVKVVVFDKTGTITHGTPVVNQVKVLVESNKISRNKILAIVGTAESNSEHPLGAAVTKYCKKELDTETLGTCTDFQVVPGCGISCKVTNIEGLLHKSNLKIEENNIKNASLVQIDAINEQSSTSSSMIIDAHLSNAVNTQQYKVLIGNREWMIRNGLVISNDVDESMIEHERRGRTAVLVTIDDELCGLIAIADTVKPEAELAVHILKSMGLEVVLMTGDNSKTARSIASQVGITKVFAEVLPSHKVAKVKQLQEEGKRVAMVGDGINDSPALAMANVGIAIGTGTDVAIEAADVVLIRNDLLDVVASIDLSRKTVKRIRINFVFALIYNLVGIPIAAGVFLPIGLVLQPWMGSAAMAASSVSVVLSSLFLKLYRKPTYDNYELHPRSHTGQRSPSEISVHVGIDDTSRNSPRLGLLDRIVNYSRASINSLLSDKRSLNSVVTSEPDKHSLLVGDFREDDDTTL
UniProt Q91VH2: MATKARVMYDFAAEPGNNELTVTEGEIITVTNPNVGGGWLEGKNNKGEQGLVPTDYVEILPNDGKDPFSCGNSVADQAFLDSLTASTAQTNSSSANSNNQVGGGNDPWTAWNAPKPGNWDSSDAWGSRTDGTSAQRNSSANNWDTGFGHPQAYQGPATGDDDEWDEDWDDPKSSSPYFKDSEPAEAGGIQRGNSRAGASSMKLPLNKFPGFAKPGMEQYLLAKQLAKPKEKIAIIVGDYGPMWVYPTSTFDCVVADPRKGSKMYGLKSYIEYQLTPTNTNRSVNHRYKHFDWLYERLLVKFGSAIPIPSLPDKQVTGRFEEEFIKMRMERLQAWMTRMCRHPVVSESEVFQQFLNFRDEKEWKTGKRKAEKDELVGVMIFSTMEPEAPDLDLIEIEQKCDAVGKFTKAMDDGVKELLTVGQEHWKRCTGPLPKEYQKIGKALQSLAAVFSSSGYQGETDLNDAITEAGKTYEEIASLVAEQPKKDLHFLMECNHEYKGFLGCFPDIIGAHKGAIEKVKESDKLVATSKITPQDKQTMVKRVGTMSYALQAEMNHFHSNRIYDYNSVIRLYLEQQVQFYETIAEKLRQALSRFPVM
UniProt Q99020: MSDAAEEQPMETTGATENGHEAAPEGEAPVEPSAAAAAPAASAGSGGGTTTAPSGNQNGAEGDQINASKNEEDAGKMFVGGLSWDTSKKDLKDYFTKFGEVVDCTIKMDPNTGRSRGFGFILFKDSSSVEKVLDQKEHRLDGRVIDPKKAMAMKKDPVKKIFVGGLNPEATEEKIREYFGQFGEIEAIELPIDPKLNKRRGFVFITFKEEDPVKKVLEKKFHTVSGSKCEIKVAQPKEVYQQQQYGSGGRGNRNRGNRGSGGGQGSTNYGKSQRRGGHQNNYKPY

The target of experiment [2] is T1, APEX2-ATOX1 fusion construct (3x Flag-APEX2-3x Myc-human ATOX1) (human). Put plainly: proximity labelling; APEX2-ATOX1 induced with doxycycline in C2C12 myoblasts, myocytes and myotubes; 2.5 mM biotin-phenol, 0.75 mM H2O2 for 1 min; streptavidin capture from RIPA lysates; label-free nanoLC-MS/MS; cells without biotin phenol as negative controls; three experiments per state.

Experiment [3] shares this target. The experiment is described as above. The source holds these as a separate data set.
Experiment [4] has the same target. Kind of experiment: proximity labelling; APEX2-ATOX1 in C2C12 myoblasts, myocytes and myotubes; biotin-phenol and H2O2 labelling; streptavidin bead eluates probed by immunoblot; cells without biotin phenol as negative controls.

These are yes or no findings as the source states them, for the method shown. Binding seen in cells or lysates may run through a third protein. Here binding means that the protein was enriched with, or labelled near, the bait; the list need not be complete. Sequences can lack the tags named with a protein.

ATP7A (from UniProt Q64430 1-1491): the binding entry in experiment [1] is on record as “binds”. As to SNX9 (from UniProt Q91VH2 1-595), the binding entry in experiment [2] is recorded as “binds”. Turning to HNRNPAB (from UniProt Q99020 1-285), the binding result in experiment [2] was “binds”.

B1: ERBB receptor feedback inhibitor 1 (ERRFI1) (protein, UniProt Q99JZ7 1-461)
chain: MSTAGVAAQDIRVPLKTGFLHNGQALGNMKSCWGSHSEFENNFLNIDPITMAYNLNSPAQEHLTTVGCAARSAPGSGHFFAECGPSPRSSLPPLVISPSESSGQREEDQVMCGFKKLSVNGVCTSTPPLTPIKSCPSPFPCAALCDRGSRPLPPLPISEDLCVDEADSEVELLTTSSDTDLLLEDSAPSDFKYDAPGRRSFRGCGQINYAYFDSPTVSVADLSCASDQNRVVPDPNPPPPQSHRRLRRSHSGPAGSFNKPAIRISSCTHRASPSSDEDKPEVPPRVPIPPRPAKPDYRRWSAEVTSNTYSDEDRPPKVPPREPLSRSNSRTPSPKSLPSYLNGVMPPTQSFAPDPKYVSSKALQRQSSEGSANKVPCILPIIENGKKVSSTHYYLLPERPPYLDKYEKYFKEAEETNPSTQIQPLPAACGMASATEKLASRMKIDMGSHGKRKHLSYVVSP
Take B1: the binding result in experiment [3] is on record as “binds”.

B2: SCAMP3 (protein, UniProt O35609 1-349)
chain: MAQSRDTGNPFPDSGELDNPFQDPAVIQHRPSQQYATLDVYNPFENREPPPAYEPPAPAPAPLPPPSAPSVQSSRKLSPTEPRNYGSYSTQASAAAATAELLKKQEELNRKAEELDRRERELQHVALGGAGTRQNNWPPLPSFCPVKPCFFQDISMEIPQEFQKTVSTMYYLWMCSTLALLLNFFACLARFCVDTGSGSGFGLSMLWLLLFTPCSFVCWYRPMYKAFRSDSSFNFFVFFFIFFVQDVFFVLQAIGIPGWGFSGWVTALVVVGSKPAVAVLMLLVALLFTGIAVLGIVMLKRIHSLYRQTGASFQKAQQEFAAGVFSNPAVRTAAANAAAGAAENAFRAP
Consider B2, for which the binding entry in experiment [3] is given as “binds”.

B3: cysteine rich intestinal protein 2 (CRIP2) (protein, UniProt Q9DCT8 1-208)
chain: MASKCPKCDKTVYFAEKVSSLGKDWHKFCLKCERCNKTLTPGGHAEHDGKPFCHKPCYATLFGPKGVNIGGAGSYIYEKPQTEAPQVTGPIEVPVVRTEERKTSGPPKGPSKASSVTTFTGEPNMCPRCNKRVYFAEKVTSLGKDWHRPCLRCERCSKTLTPGGHAEHDGQPYCHKPCYGILFGPKGVNTGAVGSYIYDKDPEGTVQP
As for B3, the binding entry in experiment [3] and in experiment [4] was “binds” in each case.

B4: copper chaperone for SOD1 (CCS) (protein, UniProt Q9WU84 1-274)
chain: MASKSGDGGTVCALEFAVQMSCQSCVDAVHKTLKGVAGVQNVDVQLENQMVLVQTTLPSQEVQALLESTGRQAVLKGMGSSQLQNLGAAVAILEGCGSIQGVVRFLQLSSELCLIEGTIDGLEPGLHGLHVHQYGDLTRDCNSCGDHFNPDGASHGGPQDTDRHRGDLGNVRAEAGGRATFRIEDKQLKVWDVIGRSLVIDEGEDDLGRGGHPLSKITGNSGKRLACGIIARSAGLFQNPKQICSCDGLTIWEERGRPIAGQGRKDSAQPPAHL
With B4, the binding entry in experiment [4] is “binds”.

B5: transforming growth factor beta regulator 1 (TBRG1) (protein, UniProt Q3UB74 1-406)
chain: MSVLSGLASEPRTPLSSKARMKRLPRKSQNEKYRLKYLRLRRAAKATVFENASICDEIARLEEKFLKAKEERRYLLKKLLQIHALTEGEPQAAAPSHSSSLPLPYGVTSSVGTMQGAGPSTGAEEPFAKKSKKEKKEKGKENSKLEVLKKTSKKKKMEGGARKLVRPIALDPSGQPVFPIGLGGLTVYSLGEIITNRPGFHDENAIYPVGYCSTRVYASMKCPDQKCLYTCQIKDGGVQPQFEIVPEDDPQNTIVGSSADACYEELLRAISATTGKLMPNPLSCGADFFGFSHPTIHNLIQSCPEAQNCVNYQWVKFDACKPRKGQLSQELPENDATMSLEAFQTQTFDDDHDDSILPGSLDLPELQHEAFVSSYQPEFLTHEPLVDTDLQHLKSPSQCSPIQSSD
In the case of B5, the binding result in experiment [3] was “binds”.

B6: SYNCRIP/HNRNPQ (protein, UniProt Q7TMK9 1-623)
chain: MATEHVNGNGTEEPMDTTSAVIHSENFQTLLDAGLPQKVAEKLDEIYVAGLVAHSDLDERAIEALKEFNEDGALAVLQQFKDSDLSHVQNKSAFLCGVMKTYRQREKQGTKVADSSKGPDEAKIKALLERTGYTLDVTTGQRKYGGPPPDSVYSGQQPSVGTEIFVGKIPRDLFEDELVPLFEKAGPIWDLRLMMDPLTGLNRGYAFVTFCTKEAAQEAVKLYNNHEIRSGKHIGVCISVANNRLFVGSIPKSKTKEQILEEFSKVTEGLTDVILYHQPDDKKKNRGFCFLEYEDHKTAAQARRRLMSGKVKVWGNVGTVEWADPIEDPDPEVMAKVKVLFVRNLANTVTEEILEKSFSQFGKLERVKKLKDYAFIHFDERDGAVKAMEEMNGKDLEGENIEIVFAKPPDQKRKERKAQRQAAKNQMYDDYYYYGPPHMPPPTRGRGRGGRGGYGYPPDYYGYEDYYDYYGYDYHNYRGGYEDPYYGYEDFQVGARGRGGRGARGAAPSRGRGAAPPRGRAGYSQRGGPGSARGVRGARGGAQQQRGRGVRGARGGRGGNVGGKRKADGYNQPDTKRRQTNNQNWGSQPIAQQPLQGGDHSGNYGYKSENQEFYQDTFGQQWK
Consider B6, for which, in experiment [3], the binding result is reported as “binds”.

The values are drawn from article doi:10.1101/2025.07.08.663731.
